Test results published in PubChem BioAssay AID1347131 (National Center for Advancing Translational Sciences (NCATS), 2019).
Screen size: about 410,000 compounds; about 2,000 (0.49%) were called active. This list was built around the results that the source calls inconclusive (neither active nor inactive); the mix of calls is not that of the screen. Calls come from the whole dose curve; tested in HEK293 reporter line. A potency beside an inconclusive call is a rough fit, not a confirmed value.

Test: qHTS Assay for Foot and Mouth Disease Virus Antivirals: Primary Screen against the MLPCN compound library; note: nearly all actives have a fitted effect of over 55% in size
Details: FMDV antiviral cell-based qHTS; activity, negative = inhibition: at 57.9 µM (top of the series)
Potency is the fitted concentration of half-maximal effect.

| SMILES | Potency | activity, negative = inhibition |
| --- | --- | --- |
| CCCOC(=O)C1=C(C)NC2=C(C(=O)CCC2)C1c1cccs1 (stereo unspecified) | inconclusive: 14.1 µM [inhibitor, partial curve] | – |
| COc1cccc(-c2nc(CS(=O)(=O)CC(=O)NCCCc3ccccc3)c(C)o2)c1 | inactive | – |
| Clc1ccc(-c2c[n+]3c(n2-c2ccccc2)SCC3)cc1 | inconclusive: 14.1 µM [inhibitor, partial curve, poor fit] | – |
| O=Cc1ccc(-c2nc3ccccc3s2)o1 | inconclusive: 39.8 µM [inhibitor, single point] | – |
| Cn1c(=O)c2[nH]c(COc3ccc(C(C)(C)C)cc3)nc2n(C)c1=O | inconclusive: 20 µM [inhibitor, partial curve, poor fit] | – |
| NNC(=O)c1cc2ccccc2cc1O | inconclusive: 6.31 µM [inhibitor, full curve, poor fit] | – |
| O=C(Nc1ccncc1)c1cccc(S(=O)(=O)N2CCN(c3ccc(F)cc3)CC2)c1 | inconclusive: 20 µM [inhibitor, partial curve, poor fit] | – |
| CC(C)(C)c1cc(C=C(C#N)C#N)cc(C(C)(C)C)c1O | inconclusive: 3.98 µM [inhibitor, full curve, poor fit] | – |
| COCCn1cnc2c(c1=O)c1nc3ccccc3nc1n2/N=C/c1cccc(OC)c1 | inconclusive: 28.2 µM [inhibitor, partial curve, poor fit] | – |
| CCn1nc(-c2ccccc2)nc2c(=O)n(C)c(=O)nc1-2 | inconclusive: 1.78 µM [inhibitor, full curve, poor fit] | – |
| Cc1ccc(CSc2nc3ccncc3[nH]2)cc1 | inconclusive: 10 µM [inhibitor, partial curve, poor fit] | – |
| Cc1ccc(CN2CCN(Cc3ccc(-n4cccn4)cc3)CC2CCO)cc1 (stereo unspecified) | inconclusive: 25.1 µM [inhibitor, partial curve, poor fit] | – |
| O=C(Nc1ccc(N2CCN(C(=O)c3cccs3)CC2)c(Cl)c1)c1ccco1 | inconclusive: 14.1 µM [inhibitor, single point] | – |
| CCOC(=O)CCCCCC(=O)Nc1ccc2c(c1)C(=O)N([C@H](C)CO)C[C@H](C)[C@@H](CN(C)S(C)(=O)=O)OCCCC[C@@H](C)O2 | inconclusive: 11.2 µM [inhibitor, partial curve, poor fit] | – |
| CC(C)(C)C1CCc2nc(NC(=O)COc3ccc(F)cc3)sc2C1 (stereo unspecified) | inconclusive: 28.2 µM [inhibitor, partial curve, poor fit] | – |
| C[C@@H](OC(=O)c1[nH]cnc1C(=O)NCc1ccc(CNC(=O)OC(C)(C)C)cc1)c1ccccc1 | inconclusive: 31.6 µM [inhibitor, partial curve, poor fit] | – |
| COc1ccc(C2C(C#N)=C3NC(=O)c4c(sc5c4CCCCC5)N3C3=C2C(=O)CC(C)(C)C3)cc1 (stereo unspecified) | inconclusive: 11.2 µM [inhibitor, partial curve] | – |
| CCOc1ccc(/C=C2\SC(=S)N(CCCC(=O)NCCCN3CCOCC3)C2=O)cc1 | inconclusive: 11.2 µM [inhibitor, partial curve, poor fit] | – |

| SMILES | Potency | activity, negative = inhibition |
| --- | --- | --- |
| CC(=O)N1CCCC(c2cc(C(=O)Nc3ccccc3)no2)C1 (stereo unspecified) | inconclusive: 35.5 µM [inhibitor, single point] | – |
| CCC(=O)N1CCN(c2ccc(NC(=O)COc3ccccc3Cl)cc2)CC1 | inconclusive: 31.6 µM [inhibitor, partial curve, poor fit] | – |
| CN(C)S(=O)(=O)c1cccc(C(=O)OCC(=O)Nc2sccc2C(N)=O)c1 | inconclusive: 14.1 µM [inhibitor, partial curve, poor fit] | – |
| CCc1nn2c(N(C)CCO)cc(C)nc2c1-c1ccc(F)cc1 | inconclusive: 22.4 µM [inhibitor, single point] | – |
| CCn1c2ccccc2c2cc(CNCc3ccc(OC)cc3OC)ccc21 | inconclusive: 20 µM [inhibitor, single point] | – |
| Cc1ccc(Cn2ncc3c(N4CCN(c5ccccc5C)CC4)ncnc32)cc1 | inconclusive: 17.8 µM [inhibitor, partial curve, poor fit] | – |
| CCOC(=O)C1CCN(c2nc3ccccc3nc2C(C#N)C(=O)OC(C)C)CC1 (stereo unspecified) | inconclusive: 2.82 µM [inhibitor, full curve] | – |
| COc1ccc(OC)c(CNC(=O)C(C)n2nc(C)c3c(C)n(-c4ccccc4)nc3c2=O)c1 (stereo unspecified) | inconclusive: 17.8 µM [inhibitor, single point] | – |
| CSc1ccc(CCNC(=O)C2CCCN(S(=O)(=O)N(C)c3ccc(F)cc3)C2)cc1 (stereo unspecified) | inconclusive: 35.5 µM [inhibitor, single point] | – |
| Cc1nn(CC(C)C)c(Cl)c1C(=O)N(C)CC(=O)Nc1ccc(Cl)cc1 | inactive | – |
| CCOC(=O)c1sc2ncnc(N3CCN(C(=O)OCC)CC3)c2c1C | inconclusive: 15.8 µM [inhibitor, partial curve, poor fit] | – |
| CCc1ccccc1NC(=O)Cn1nc(C)c2nn(-c3ccc(Cl)cc3)c(C)c2c1=O | inactive | – |
| CCc1c(-c2ccccc2)nc2sc3c(c2c1N)CCCC3 | inconclusive: 39.8 µM [inhibitor, single point] | – |
| Cc1ccc(CNC(=O)c2ccc(N3CCC4(CC3)CC(c3ccccc3)=NO4)c(N)c2)cc1 | inconclusive: 7.94 µM [inhibitor, partial curve] | – |
| C=C1C(=O)[C@]23C[C@H]1CCC2[C@]1(C)C(=O)CC[C@@](C)(C(=O)O)C1C[C@@H]3O (stereo partly specified) | inconclusive: 35.5 µM [inhibitor, single point] | – |
| CC(C)c1ccc(NC(=O)C2CCC(CNS(=O)(=O)c3ccc4c(c3)CCCC(=O)N4)CC2)cc1 (stereo unspecified) | inconclusive: 25.1 µM [inhibitor, partial curve, poor fit] | – |
| COc1cccc(N/C(SCc2cccc([N+](=O)[O-])c2)=C(/C#N)C(N)=O)c1 | inconclusive: 35.5 µM [inhibitor, partial curve, poor fit] | – |
| O=C(Nc1ccccc1)OCCCCCOC(=O)Nc1ccccc1 | – | inconclusive: -30.2% [inhibitor] |

Some of the entries so far, in CSV form:
SMILES,Potency,"activity, negative = inhibition"
COc1ccc(C2C(C#N)=C3NC(=O)c4c(sc5c4CCCCC5)N3C3=C2C(=O)CC(C)(C)C3)cc1 (stereo unspecified),"inconclusive: 11.2 µM [inhibitor, partial curve]",–
CCOc1ccc(/C=C2\SC(=S)N(CCCC(=O)NCCCN3CCOCC3)C2=O)cc1,"inconclusive: 11.2 µM [inhibitor, partial curve, poor fit]",–
